The target in this assay is low density lipoprotein receptor (LDLR) (UniProt P01130). The assay is described as follows: competition with DiI-LDL on HEK293T cells, flow cytometry.

Results are given in words; binding and its absence hold for the method and conditions named. Some binding calls cover weakened binding; strength is not graded here.

B1: human apoE dual-domain peptide hEP (peptide)
peptide: EELRVRLASHLRKLRKRLLRDADDLQKRLAVYEEQAQQIRLQAEAFQARLKSWFEPLVEDM
With B1, the binding result was “binds”.
